From patent US20150064179A1 (BIOTEST, published 2015)
No constants are given. Whether binding was seen depends on the method and setting. Some results given as binding are weak or reduced against the parent protein; the word gives no strength.

Sequences of proteins named here, by UniProt entry; tags and fusion partners are left off. A change or cut given only in a name is not applied to a line headed by its entry.
UniProt P22301: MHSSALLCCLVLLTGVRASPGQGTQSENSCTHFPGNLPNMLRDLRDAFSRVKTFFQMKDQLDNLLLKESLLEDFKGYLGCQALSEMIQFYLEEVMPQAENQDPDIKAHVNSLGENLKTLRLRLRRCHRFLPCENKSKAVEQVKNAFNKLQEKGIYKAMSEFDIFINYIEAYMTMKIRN

Tests used:
[1] = target: human IL-10 expressed in E. coli for crystallisation (human) (UniProt P22301); assay: X-ray co-crystal structure at 3.48 A
[2] = target: human IL-10 expressed in E. coli for crystallisation (human) (UniProt P22301); assay: complex formation, size exclusion chromatography

binding [1]: binds
binding [2]: binds
B1: Fab fragment of BT-063 (variant hVH26/hVL7) (Fab, V domains shown)
VH: EVQLVESGGGLVQPGGSLRLSCAASGFSFATYGVHWVRQSPGKGLEWLGVIWRGGSTDYSAAFMSRLTISKDNSKNTVYLQMNSLRAEDTAVYFCAKQAYGHYMDYWGQGTSVTVSS
VL: DVVMTQSPLSLPVTLGQPASISCRSSQNIVHSNGNTYLEWYLQRPGQSPRLLIYKVSNRFSGVPDRFSGSGSGTDFTLKISRVEAEDVGVYYCFQGSHVPWTFGQGTKVEIK
